Test results: patent publication US20200393470A1
No constants are given. Whether binding was seen depends on the method and setting. Some binding calls cover weakened binding; strength is not graded here. Where a sequence is shown, tags or fusion partners need not be part of it.

T1: human ANGPTL8 monomer protein with myc-myc-his tag (human) (UniProt Q6UXH0)
T1 sequence: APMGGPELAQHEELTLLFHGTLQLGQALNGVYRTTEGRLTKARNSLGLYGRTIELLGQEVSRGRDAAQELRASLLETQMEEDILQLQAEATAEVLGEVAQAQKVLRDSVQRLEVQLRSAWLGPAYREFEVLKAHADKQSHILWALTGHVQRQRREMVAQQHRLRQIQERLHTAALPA

T2: untagged human ANGPTL8 protein (outsourced production, Genscript) (human) (UniProt Q6UXH0)
T2 sequence: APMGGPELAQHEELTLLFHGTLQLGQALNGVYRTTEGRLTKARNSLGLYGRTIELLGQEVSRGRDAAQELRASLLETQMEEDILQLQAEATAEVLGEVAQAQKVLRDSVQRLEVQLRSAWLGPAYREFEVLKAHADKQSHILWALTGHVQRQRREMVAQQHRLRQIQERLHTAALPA


Columns and labels:
[1] = target: T1, human ANGPTL8 monomer protein with myc-myc-his tag (human); experiment: sandwich ELISA, capture mAb, monomer standard
[2] = target: T2, untagged human ANGPTL8 protein (outsourced production, Genscript) (human); experiment: sandwich ELISA, H4H15347P capture, biotin-H4H15318P detection
[3] = target: T1, human ANGPTL8 monomer protein with myc-myc-his tag (human); experiment: sandwich ELISA, biotinylated detection mAb, monomer standard

binding [1] | binding [2] | binding [3] | Binder
binds | binds |  | H4H15347P (antibody, human IgG4, V domains shown) VH: EVQLVESGGGLVQPGGSLRLSCAASGFTFRNYAMNWARQAPGKGLEWVSGITGSGGATYYADSVKGRFTISRENSKNTLFLQMDTLRAEDTAVYYCAKDRRYFPTSGGPQWGQGTLVTVSS VL: DIVMTQSPLSLPVTPGEPASISCRSSRSLLHSSGYNYLDWYLQKPGQSPQLLLYLGSNRASGVPDRFSGSGSGTYFTLKISRVDAEDVGVYYCMQALQTPWTFGQGTKVEIK
 | binds | binds | H4H15318P (antibody, V domains shown) VH: QVQLVESGGGVVQPGRSLRLSCTASGFTFGNFGIHWVRQAPGKGLEWVAVISYDGTDKFYADPVKGRFIISRDNSMNILYLQMNSLRAEDTAVYYCAKDGEMELRGYYYYYGMDVWGQGTTVTVSS VL: DIQMTQSPSSVSASVGDRVTITCRASQGINTWLAWYQQKPGTAPKLLIFAASSLESGVPSRFSGSGFGTDFTLTISSLQSEDLATYFCQQVHSPPYTFGQGTKLEIK
